Data as given in publication PMC10130750, “The motor domain of the kinesin Kip2 promotes microtubule polymerization at microtubule tips” (The Journal of Cell Biology, 2023).

Experiments:
[1] = target: tubulin (free αβ-tubulin heterodimer) (not stated (bovine brain tubulin used for pelleting, pig brain tubulin for TIRF)); assay: SEC-MALS; 25°C; 20 mM Hepes pH 7.4, 200 mM NaCl, 1 mM DTT; 4–8 mg/ml applied; MBP-Kip2(71-560)-mCherry or its P1^− mutant alone and mixed with tubulin; both purified
[2] = target: tubulin (free αβ-tubulin heterodimer) (not stated (bovine brain tubulin used for pelleting, pig brain tubulin for TIRF)); assay: SEC-MALS; 25°C; Kip2-NMD, tubulin and their mixture; 4–8 mg/ml applied; buffer of the mixture not told (Tris buffer named for Kip2-NMD, Hepes buffer for tubulin); both purified
[3] = target: Taxol-stabilized microtubules (bovine brain tubulin) (bovine); assay: co-sedimentation; microtubule-pelleting assay; Taxol-stabilized microtubules of bovine brain tubulin in BRB80, taxol–glycerol cushion, 174,500 g, 30 min, 25°C; Coomassie-stained SDS-PAGE of supernatant and pellet; both purified

| binding [1] | binding [2] | binding [3] | Binder |
| --- | --- | --- | --- |
| binds |  |  | MBP-Kip2(71-560)-P1^−-mCherry (domain or fragment, S. cerevisiae, UniProt P28743 71-560, looked up, Kip2 motor domain with a first helix of the coiled coil, S. cerevisiae, residues 71–560, patch 1 (Lys294, Arg296) substituted with alanines; Mixed monomers and dimers by SEC-MALS (192 kD); also called MBP-Kip2-MD-P1^−-mCherry; MBP-Kip2-MD-P1; not shown: MBP, N-terminal, kept; mCherry, C-terminal, kept) KSDPFLHPGRIRIRRSDSINNNSRKNDTYTGSITVTIRPKPRSVGTSRDHVGLKSPRYSQPRSNSHHGSNTFVRDPWFITNDKTIVHEEIGEFKFDHVFASHCTNLEVYERTSKPMIDKLLMGFNATIFAYGMTGSGKTFTMSGNEQELGLIPLSVSYLFTNIMEQSMNGDKKFDVIISYLEIYNERIYDLLESGLEESGSRISTPSRLYMSKSNSNGLGVELAIADDSQYGVKVIGLTERRCESSEELLRWIAVGDKSRKIGETDYNARSSRSHAIVLIRLTSTNVKNGTSRSSTLSLCDLAGSERATGQQERRKEGSFINKSLLALGTVISKLSADKMNSVGSNIPSPSASGSSSSSGNATNNGTSPSNHIPYRDSKLTRLLQPALSGDSIVTTICTVDTRNDAAAETMNTLRFASRAKNVALHVSKKSIISNGNNDGDKDRTIELLRRQLEEQRRMISELKNRSNIGEPLTKSSNESTYKDIKATGN |
|  | no binding (tested: 4–8 mg/ml applied) | no binding | Kip2 non-motor domain (Kip2-NMD, residues 504–706) (domain or fragment, S. cerevisiae, UniProt P28743 504-706, looked up, Kip2 non-motor domain (coiled coil and C-terminal tail), S. cerevisiae, residues 504–706; Dimer by SEC-MALS (45 kD); PreScission site between His tag and protein; also called NMD-Kip2; source: E. coli BL21 (DE3), purified (IMAC, SEC); not shown: His6, N-terminal, cleaved) SNGNNDGDKDRTIELLRRQLEEQRRMISELKNRSNIGEPLTKSSNESTYKDIKATGNDGDPNLALMRAENRVLKYKLENCEKLLDKDVVDLQDSEIMEIVEMLPFEVGTLLETKFQGLESQIRQYRKYTQKLEDKIMALEKSGHTAMSLTGCDGTEVIELQKMLERKDKMIEALQSAKRLRDRALKPLINTQQSPHPVVDNDK |

These are yes or no findings as the source states them, for the method shown. For part of these data: Binding calls can cover weak binding; strength is not graded here. For part of these data: Where a sequence is shown, tags or fusion partners need not be part of it.
